Experimental findings from the supplement of paper PMC10849652 are described below.

Protein sequences, listed by entry. Tags and fused reporters are not part of them. Lines headed by an entry give the natural chain unless they say otherwise; changes in a name come on top.
UniProt O43516: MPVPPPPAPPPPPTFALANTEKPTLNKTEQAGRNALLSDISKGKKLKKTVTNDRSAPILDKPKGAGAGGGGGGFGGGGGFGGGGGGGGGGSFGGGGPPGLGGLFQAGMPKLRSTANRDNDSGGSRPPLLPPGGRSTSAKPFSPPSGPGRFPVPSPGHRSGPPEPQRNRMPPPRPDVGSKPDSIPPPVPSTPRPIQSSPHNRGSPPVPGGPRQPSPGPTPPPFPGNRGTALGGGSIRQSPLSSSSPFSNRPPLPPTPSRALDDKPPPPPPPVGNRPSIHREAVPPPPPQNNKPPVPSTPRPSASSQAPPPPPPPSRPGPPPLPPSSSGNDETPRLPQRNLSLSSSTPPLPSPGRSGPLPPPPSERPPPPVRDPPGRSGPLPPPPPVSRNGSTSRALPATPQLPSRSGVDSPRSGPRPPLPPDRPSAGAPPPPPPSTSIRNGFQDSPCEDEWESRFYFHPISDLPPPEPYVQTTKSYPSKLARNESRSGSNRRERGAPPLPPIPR
UniProt Q96S15: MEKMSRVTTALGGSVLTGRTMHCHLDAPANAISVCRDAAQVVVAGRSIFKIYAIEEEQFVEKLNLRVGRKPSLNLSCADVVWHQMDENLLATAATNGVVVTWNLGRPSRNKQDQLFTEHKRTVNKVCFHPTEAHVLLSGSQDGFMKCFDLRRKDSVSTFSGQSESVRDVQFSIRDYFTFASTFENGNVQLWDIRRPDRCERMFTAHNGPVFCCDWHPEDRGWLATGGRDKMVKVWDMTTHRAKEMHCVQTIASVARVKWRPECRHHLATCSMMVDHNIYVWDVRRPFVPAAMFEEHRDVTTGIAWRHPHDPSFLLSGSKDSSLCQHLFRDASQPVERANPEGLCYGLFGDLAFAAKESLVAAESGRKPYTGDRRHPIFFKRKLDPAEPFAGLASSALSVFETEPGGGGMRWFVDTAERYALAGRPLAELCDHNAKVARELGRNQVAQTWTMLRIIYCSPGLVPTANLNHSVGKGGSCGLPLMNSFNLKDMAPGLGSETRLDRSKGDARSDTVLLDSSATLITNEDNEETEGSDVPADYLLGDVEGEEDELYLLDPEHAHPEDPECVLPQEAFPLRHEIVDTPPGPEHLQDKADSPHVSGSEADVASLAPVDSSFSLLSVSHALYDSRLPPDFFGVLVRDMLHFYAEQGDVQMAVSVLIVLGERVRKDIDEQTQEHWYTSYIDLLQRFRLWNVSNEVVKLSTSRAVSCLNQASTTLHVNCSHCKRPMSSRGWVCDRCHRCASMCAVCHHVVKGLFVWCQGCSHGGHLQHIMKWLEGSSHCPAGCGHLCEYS
UniProt P04004: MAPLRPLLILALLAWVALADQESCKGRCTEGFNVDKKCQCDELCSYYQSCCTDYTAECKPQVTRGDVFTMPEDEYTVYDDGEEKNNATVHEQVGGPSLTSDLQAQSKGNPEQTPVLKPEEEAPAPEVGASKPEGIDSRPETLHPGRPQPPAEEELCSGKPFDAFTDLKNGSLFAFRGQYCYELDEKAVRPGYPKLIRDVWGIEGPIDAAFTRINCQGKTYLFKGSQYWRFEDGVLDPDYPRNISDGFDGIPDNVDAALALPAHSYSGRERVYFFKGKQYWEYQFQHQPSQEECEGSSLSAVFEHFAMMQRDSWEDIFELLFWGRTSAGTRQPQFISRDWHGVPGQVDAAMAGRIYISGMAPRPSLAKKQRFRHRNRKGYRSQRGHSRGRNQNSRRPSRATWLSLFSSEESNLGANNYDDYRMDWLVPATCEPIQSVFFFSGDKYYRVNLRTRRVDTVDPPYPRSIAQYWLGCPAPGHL
UniProt Q6PJI9: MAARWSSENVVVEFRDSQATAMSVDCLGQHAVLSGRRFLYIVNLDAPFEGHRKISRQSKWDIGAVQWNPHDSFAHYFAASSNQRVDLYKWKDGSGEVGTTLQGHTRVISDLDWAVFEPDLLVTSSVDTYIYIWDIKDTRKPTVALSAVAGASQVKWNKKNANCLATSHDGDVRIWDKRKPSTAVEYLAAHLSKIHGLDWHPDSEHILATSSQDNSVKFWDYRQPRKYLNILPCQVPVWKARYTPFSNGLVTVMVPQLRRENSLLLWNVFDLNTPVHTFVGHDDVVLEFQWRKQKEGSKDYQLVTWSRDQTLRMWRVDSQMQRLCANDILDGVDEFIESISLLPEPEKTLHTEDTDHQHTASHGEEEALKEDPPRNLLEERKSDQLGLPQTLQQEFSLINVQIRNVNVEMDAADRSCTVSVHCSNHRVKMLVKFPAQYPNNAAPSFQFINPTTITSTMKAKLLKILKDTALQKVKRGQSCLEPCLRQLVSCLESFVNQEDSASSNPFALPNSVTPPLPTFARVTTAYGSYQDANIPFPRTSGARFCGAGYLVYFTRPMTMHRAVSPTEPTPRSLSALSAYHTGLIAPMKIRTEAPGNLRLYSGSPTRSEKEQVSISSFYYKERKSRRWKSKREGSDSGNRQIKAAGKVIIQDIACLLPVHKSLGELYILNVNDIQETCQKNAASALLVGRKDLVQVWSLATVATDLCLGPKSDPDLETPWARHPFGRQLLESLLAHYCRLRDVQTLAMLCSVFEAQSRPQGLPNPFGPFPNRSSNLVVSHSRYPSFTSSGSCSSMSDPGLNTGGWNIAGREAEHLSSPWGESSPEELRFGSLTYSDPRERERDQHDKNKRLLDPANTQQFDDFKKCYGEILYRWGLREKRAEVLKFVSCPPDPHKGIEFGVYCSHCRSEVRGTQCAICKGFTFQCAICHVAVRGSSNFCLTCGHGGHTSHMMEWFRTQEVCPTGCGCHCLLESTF
UniProt Q9C0J8: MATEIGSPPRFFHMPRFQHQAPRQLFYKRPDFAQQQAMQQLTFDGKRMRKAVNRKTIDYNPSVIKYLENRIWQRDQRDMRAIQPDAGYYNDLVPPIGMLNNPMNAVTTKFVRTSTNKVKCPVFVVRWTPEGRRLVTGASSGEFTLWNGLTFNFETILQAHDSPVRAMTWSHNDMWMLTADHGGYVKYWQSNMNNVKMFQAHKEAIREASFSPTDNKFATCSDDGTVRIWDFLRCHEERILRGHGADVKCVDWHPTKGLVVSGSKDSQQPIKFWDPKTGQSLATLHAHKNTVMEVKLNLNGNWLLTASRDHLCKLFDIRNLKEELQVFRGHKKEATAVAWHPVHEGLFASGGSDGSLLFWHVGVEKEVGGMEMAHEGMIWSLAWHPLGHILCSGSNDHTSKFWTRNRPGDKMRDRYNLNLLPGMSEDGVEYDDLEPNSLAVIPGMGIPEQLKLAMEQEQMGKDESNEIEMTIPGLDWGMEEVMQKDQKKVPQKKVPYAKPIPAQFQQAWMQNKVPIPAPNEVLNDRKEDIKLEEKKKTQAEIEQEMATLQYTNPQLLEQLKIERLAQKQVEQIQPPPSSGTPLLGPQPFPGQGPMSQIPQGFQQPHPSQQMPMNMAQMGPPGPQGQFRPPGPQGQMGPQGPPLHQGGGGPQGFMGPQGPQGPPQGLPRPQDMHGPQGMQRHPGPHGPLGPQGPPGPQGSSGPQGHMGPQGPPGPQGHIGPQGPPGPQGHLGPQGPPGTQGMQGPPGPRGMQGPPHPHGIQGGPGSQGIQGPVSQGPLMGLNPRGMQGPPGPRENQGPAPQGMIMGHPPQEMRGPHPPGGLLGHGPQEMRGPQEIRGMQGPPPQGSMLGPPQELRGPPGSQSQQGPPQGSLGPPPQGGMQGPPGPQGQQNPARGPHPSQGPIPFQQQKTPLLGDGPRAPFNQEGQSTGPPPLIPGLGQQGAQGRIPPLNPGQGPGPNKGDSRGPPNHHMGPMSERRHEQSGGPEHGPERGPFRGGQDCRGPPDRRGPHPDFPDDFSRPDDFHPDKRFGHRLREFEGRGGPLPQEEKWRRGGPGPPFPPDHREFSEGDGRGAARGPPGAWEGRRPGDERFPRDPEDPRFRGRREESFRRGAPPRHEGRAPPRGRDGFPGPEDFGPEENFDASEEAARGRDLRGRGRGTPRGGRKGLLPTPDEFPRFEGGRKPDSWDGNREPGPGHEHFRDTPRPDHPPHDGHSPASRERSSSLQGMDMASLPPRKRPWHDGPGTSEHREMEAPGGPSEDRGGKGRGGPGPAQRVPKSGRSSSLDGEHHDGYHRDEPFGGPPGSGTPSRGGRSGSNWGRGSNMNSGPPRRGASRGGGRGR
UniProt Q15906, whole entry, looked up: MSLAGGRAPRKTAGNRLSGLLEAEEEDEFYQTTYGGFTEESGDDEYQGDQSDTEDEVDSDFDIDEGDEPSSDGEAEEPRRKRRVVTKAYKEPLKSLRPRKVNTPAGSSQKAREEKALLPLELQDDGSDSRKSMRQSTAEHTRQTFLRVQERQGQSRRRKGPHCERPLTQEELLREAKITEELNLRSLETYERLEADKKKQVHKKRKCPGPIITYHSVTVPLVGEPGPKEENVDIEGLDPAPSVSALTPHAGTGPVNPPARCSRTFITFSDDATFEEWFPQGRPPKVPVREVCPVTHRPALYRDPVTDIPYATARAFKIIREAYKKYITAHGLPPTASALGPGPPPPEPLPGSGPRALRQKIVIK
UniProt P30291: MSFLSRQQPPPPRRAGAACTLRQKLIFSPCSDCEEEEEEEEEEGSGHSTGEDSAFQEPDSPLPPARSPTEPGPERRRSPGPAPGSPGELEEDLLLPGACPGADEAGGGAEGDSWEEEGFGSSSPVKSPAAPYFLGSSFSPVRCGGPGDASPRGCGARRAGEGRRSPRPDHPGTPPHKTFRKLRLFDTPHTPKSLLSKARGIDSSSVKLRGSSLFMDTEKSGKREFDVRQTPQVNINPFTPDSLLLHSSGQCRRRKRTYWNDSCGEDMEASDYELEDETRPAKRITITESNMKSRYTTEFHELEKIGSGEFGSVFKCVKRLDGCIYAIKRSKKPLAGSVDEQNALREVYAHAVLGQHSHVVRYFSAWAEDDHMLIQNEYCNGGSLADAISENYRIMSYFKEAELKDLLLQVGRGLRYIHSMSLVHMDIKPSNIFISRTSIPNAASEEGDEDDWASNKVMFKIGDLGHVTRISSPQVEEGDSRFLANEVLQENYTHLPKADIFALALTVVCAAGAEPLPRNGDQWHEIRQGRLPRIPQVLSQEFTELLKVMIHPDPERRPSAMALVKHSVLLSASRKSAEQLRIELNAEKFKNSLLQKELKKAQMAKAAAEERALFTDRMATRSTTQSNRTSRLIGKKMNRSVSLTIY
UniProt Q9H6R7: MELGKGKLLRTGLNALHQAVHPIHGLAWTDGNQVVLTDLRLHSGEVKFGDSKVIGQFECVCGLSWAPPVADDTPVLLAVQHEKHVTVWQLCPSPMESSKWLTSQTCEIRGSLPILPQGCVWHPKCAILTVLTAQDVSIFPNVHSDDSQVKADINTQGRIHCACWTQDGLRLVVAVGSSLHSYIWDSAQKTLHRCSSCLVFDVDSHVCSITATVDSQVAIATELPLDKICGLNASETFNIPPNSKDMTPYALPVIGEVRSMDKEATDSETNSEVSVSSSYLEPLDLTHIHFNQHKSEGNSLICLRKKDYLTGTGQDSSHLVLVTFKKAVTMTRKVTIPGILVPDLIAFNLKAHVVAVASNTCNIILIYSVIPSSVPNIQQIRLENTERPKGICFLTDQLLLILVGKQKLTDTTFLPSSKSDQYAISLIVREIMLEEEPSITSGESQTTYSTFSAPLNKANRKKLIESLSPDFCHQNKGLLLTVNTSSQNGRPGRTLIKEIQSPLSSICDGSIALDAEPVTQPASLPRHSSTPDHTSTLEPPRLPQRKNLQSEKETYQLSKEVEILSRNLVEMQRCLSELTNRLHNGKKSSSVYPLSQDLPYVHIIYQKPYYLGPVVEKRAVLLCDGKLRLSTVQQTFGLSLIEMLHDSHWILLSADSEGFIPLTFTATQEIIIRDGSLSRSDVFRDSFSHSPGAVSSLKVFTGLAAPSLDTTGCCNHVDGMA
UniProt Q14135: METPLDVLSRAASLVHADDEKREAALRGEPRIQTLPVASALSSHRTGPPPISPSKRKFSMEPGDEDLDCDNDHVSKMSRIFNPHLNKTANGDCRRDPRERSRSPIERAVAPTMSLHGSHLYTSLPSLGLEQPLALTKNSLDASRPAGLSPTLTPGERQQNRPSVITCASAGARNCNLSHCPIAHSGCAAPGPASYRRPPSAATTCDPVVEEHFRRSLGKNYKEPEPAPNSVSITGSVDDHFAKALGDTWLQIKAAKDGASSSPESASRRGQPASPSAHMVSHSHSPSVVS
UniProt Q6VEQ5: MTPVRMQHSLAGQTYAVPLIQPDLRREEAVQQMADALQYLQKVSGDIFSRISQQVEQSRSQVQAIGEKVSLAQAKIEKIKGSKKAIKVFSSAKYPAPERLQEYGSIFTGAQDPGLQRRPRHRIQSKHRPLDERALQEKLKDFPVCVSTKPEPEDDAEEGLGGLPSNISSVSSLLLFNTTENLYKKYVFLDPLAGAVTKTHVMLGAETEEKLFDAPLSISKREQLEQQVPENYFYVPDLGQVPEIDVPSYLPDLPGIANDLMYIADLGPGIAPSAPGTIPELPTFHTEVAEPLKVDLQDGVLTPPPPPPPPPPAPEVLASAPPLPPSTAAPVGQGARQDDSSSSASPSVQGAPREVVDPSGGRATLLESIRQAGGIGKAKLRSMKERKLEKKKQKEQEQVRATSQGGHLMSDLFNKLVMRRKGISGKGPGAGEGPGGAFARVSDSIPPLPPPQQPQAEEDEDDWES

This is one part of the list.

Assay in all cases: log2 fold change, soluble protein after heating vs DMSO (PISA); higher = thermal stabilisation; K562 cells, 10 uM, 30 min; active = over 0.2 and 3.5 SD of the protein, either way, in both replicates (recomputed)
Compound in experiment [1]: NC(=O)Nc1cc(-c2cccc(F)c2)sc1C(=O)N[C@H]1CCCNC1
An outline of the steps: (§1)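 Thermal stability values are relative to control samples and come from duplicates. They are expressed as log2 fold changes. For measurement, K562 cells (2×10^6 cells/mL) received 10 μM compound for 30 min, and aliquots were heated for 3 min over 48°C-58°C, pooled, and extracted at 4°C in PBS with 0.5% NP-40. Soluble protein, the supernatant after 21,000xg for 90 min, was quantified by TMTpro 16plex LC-MS/MS with equalised channel sums.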

Compound in experiment [2]: NC(=O)c1cnc(N[C@@H]2CCCC[C@@H]2N)nc1Nc1cccc(-n2nccn2)c1
In a few lines: as §1

Compound in experiment [3]: NC1(c2ccc(-c3nc4ccn5c(=O)[nH]nc5c4cc3-c3ccccc3)cc2)CCC1
An outline of the steps: as §1

Compound in experiment [4]: NCC(=O)Nc1ccc(-n2nc(C(F)(F)F)cc2-c2ccc3c(ccc4ccccc43)c2)cc1
An outline of the steps:
as §1

Compound in the next experiment: Nc1ccccc1NC(=O)c1ccc(CNC(=O)OCc2cccnc2)cc1 [entinostat]
An outline of the steps:
as §1

Compound in a further experiment: O=C(CCCCCCC(=O)Nc1ccccc1)NO [vorinostat]
An outline of the steps: as §1

Compound in another experiment: O=C(CCCCCCNC(=O)c1cnc(N(c2ccccc2)c2ccccc2Cl)nc1)NO [citarinostat]
An outline of the steps:
as §1

Compound in another experiment: O=C(O)c1ccc2c(c1)nc(Nc1cccc(Cl)c1)c1ccncc12 [silmitasertib]
In a few lines:
as §1

Compound in experiment [5]: c1cc(OCCN2CCCCC2)cc(-c2n[nH]c3ccc(-c4nnc[nH]4)cc23)c1
In a few lines:
as §1

Compound in experiment [6]: O=C1NC(=O)C(c2cnc3ccccn23)=C1c1cn2c3c(cc(F)cc13)CN(C(=O)N1CCCCC1)CC2
An outline of the steps:
as §1

Take VKORC1 (UniProt Q9BQB6): the log2 fold change in experiment [1] is inactive: -0.006; in experiment [2] it was inactive: 0; in [3], inactive: -0.054; in [4], inactive: -0.114; in the experiment with entinostat, inactive: 0.025; with vorinostat, inactive: -0.034. Also, the results for the log2 fold change (with citarinostat; with silmitasertib; in experiment [5]) were inactive: 0.001, inactive: -0.023 and inactive: 0.073, respectively.
As for WIPF1 isoform 3 (UniProt O43516), the log2 fold change in experiment [1] was inactive: 0.016; in experiment [2], inactive: 0.06; in experiment [3] it was inactive: -0.016; in experiment [4], inactive: 0.013; with entinostat, inactive: 0.023; in the experiment with vorinostat it was inactive: 0.166. The log2 fold change with citarinostat was inactive: 0.087; with silmitasertib, inactive: -0.026; in experiment [5], inactive: 0.075.
As for WDR24 (UniProt Q96S15), the log2 fold change is inactive: 0.001 in [1]; inactive: -0.217 in experiment [2]; inactive: -0.014 with entinostat; inactive: 0.164 with vorinostat; inactive: 0.073 with citarinostat; inactive: 0.273 in experiment [6]. Also, the log2 fold change in [5] was inactive: -0.091.
VTN (UniProt P04004): the log2 fold change in experiment [1] was inactive: -0.117; in experiment [2], inactive: -0.015; in experiment [3], inactive: 0.083; in [4] it was inactive: -0.103; with entinostat, inactive: -0.063; with citarinostat, inactive: -0.056. Moreover, the log2 fold change with silmitasertib was inactive: 0.185; in [6], inactive: 0.227; in experiment [5], inactive: 0.019.
As for WDR59 (UniProt Q6PJI9), the log2 fold change in experiment [1] is inactive: 0.105; in [2] it was inactive: -0.07; in experiment [3], inactive: 0.182; in [4], inactive: -0.028; with entinostat, inactive: -0.008; in the experiment with vorinostat, inactive: 0.015. For the same target, the log2 fold change is inactive: 0.028 with citarinostat, inactive: -0.194 with silmitasertib, inactive: 0.017 in [6] and inactive: 0.125 in [5].
On to WASHC4 (UniProt Q2M389), for which the log2 fold change in experiment [1] was inactive: -0.023; in experiment [2], inactive: 0.002; in [3] it was inactive: -0.193; in experiment [4], inactive: -0.096; with entinostat, inactive: 0.099; in the experiment with vorinostat it was inactive: 0.068. For the same target, the log2 fold change in the experiment with citarinostat was inactive: 0.026; with silmitasertib, inactive: -0.002; in [6], inactive: 0.084; in experiment [5] it was inactive: -0.049.
As for WDR33 (UniProt Q9C0J8), the log2 fold change was inactive: -0.072 in experiment [1]; inactive: -0.212 in experiment [2]; inactive: -0.01 in [3]; inactive: -0.006 in experiment [4]; inactive: -0.019 with entinostat; inactive: -0.027 with citarinostat. Besides, the log2 fold change in the experiment with silmitasertib was inactive: 0.006; in [6], inactive: 0.278; in experiment [5], inactive: -0.12.
On to VPS72 isoform 2 (UniProt Q15906), for which the log2 fold change is inactive: 0.092 in experiment [1]; inactive: -0.226 in experiment [2]; inactive: -0.117 in [3]; inactive: 0.037 in experiment [4]; inactive: -0.032 with entinostat; inactive: 0.102 in the experiment with citarinostat. In addition, the log2 fold change with silmitasertib is inactive: 0.199; in experiment [6] it was inactive: -0.157; in experiment [5] it was inactive: -0.116.
Turning to WEE1 (UniProt P30291), the log2 fold change was inactive: -0.455 in [1]; inactive: 0.205 in experiment [2]; inactive: 0.04 in experiment [3]; inactive: -0.045 in [4]; inactive: 0.47 with entinostat; inactive: 0.05 with vorinostat. Besides, the results for the log2 fold change (with silmitasertib; in experiment [6]) were inactive: -0.122 and inactive: 0.089, respectively.
Regarding WASHC3 (UniProt Q9Y3C0), the log2 fold change in experiment [1] was inactive: -0.037; in experiment [2] it was inactive: 0.1; in experiment [3], active: -0.271; in experiment [4] it was inactive: -0.029; in the experiment with entinostat, inactive: -0.011; with vorinostat, inactive: -0.053. For the same target, the log2 fold change with citarinostat is inactive: 0.016; with silmitasertib, inactive: 0.075; in [6], inactive: -0.054; in experiment [5], inactive: -0.005.
In the case of WDR92 (UniProt Q96MX6), the log2 fold change is inactive: -0.052 in [1]; inactive: -0.076 in experiment [2]; inactive: -0.028 in experiment [3]; inactive: -0.015 in experiment [4]; inactive: 0.011 with entinostat; inactive: 0.003 with vorinostat. The log2 fold change in the experiment with citarinostat was inactive: -0.002; with silmitasertib, inactive: -0.044; in experiment [6], inactive: -0.03; in experiment [5] it was inactive: -0.035.
For the target WDCP (UniProt Q9H6R7), the log2 fold change in experiment [1] is inactive: 0.062; in [2], inactive: 0.049; in experiment [3] it was inactive: -0.011; in [4], inactive: -0.025; in the experiment with entinostat, inactive: 0.019; with vorinostat it was inactive: 0.037. Further, the log2 fold change in the experiment with citarinostat was inactive: 0.118; with silmitasertib, inactive: 0.172; in experiment [6], inactive: -0.033; in experiment [5], inactive: -0.035.
Take VGLL4 isoform 4 (UniProt Q14135): the log2 fold change was inactive: 0.048 in experiment [1]; inactive: -0.103 in [2]; inactive: 0.056 in experiment [3]; inactive: 0.02 in experiment [4]; inactive: -0.063 with entinostat; inactive: 0.084 in the experiment with vorinostat. Besides, the log2 fold change in the experiment with silmitasertib is inactive: 0.03; in experiment [6], inactive: -0.049.
As for WIPI1 (UniProt Q5MNZ9), the log2 fold change is inactive: 0.057 in experiment [1]; inactive: -0.064 in experiment [2]; inactive: -0.138 in experiment [3]; inactive: 0.019 in the experiment with entinostat; inactive: -0.07 with vorinostat; inactive: 0.118 in the experiment with citarinostat. The values for the log2 fold change (with silmitasertib; in experiment [6]; in experiment [5]) were inactive: -0.052, inactive: 0.002 and inactive: 0.023, respectively.
For WASH2P (UniProt Q6VEQ5), the log2 fold change is inactive: 0.067 in [1]; inactive: -0.088 in [2]; active: -0.314 in experiment [3]; inactive: 0.02 in experiment [4]; inactive: 0.028 with entinostat; inactive: -0.016 in the experiment with vorinostat. Moreover, the log2 fold change was inactive: 0.029 with citarinostat, inactive: 0.06 in the experiment with silmitasertib, inactive: 0.092 in experiment [6] and inactive: -0.045 in [5].
